PubChem BioAssay AID1259308 – NCATS – 2017
The deposit covers about 59,000 reagents; shown is a part drawn at random. In the full data, about 1,510 (2.6%) were called active. 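Calls use total luciferase alone and ignore viability, so some active siRNAs may act by altering cell number.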 Reagents against one gene are numbered here. No sequences are given here.

- Purpose: 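Knock-downs that increase output of a recombinant reporter protein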 (primary screen)
- System: human HEK293 embryonic kidney cells stably expressing firefly luciferase (HEK-CMV-Luc2-Hygro)
- Knock-down reagent: single siRNA against human genes, 0.8 pmol siRNA per well
- Duration: 72 h
- Measured: 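Luciferase light (ONE-Glo) measured on one replicate plate set and viability (CellTiter-Glo) on the other, scaled to a negative control siRNA, with robust z-scores and luciferase per cell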
- Reading the numbers: total luciferase, z-score and total luciferase, % of control: higher = more reporter protein produced; luciferase per cell, z-score: higher = more reporter output per viable cell; viable cells, % of control: higher = more viable cells
- Call rule: 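Active when the median/MAD z-score for overall luciferase is greater than 3; a gene was taken forward for validation with new siRNAs if at least two of its three siRNAs passed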
- Meaning of the calls: active = raised luciferase; inactive = no rise

gene knocked down	reagent	total luciferase, z-score	total luciferase, % of control	luciferase per cell, z-score	viable cells, % of control	outcome
NKX2-6 (NK2 homeobox 6)	1	-1.25	57.1	-1.14	86	inactive
NKX2-6 (NK2 homeobox 6)	2	-0.283	76.3	0.336	78	inactive
NKX2-6 (NK2 homeobox 6)	3	-0.0396	81.1	-0.208	95.7	inactive
OAF (out at first homolog)	1	-0.142	79.1	0.235	83	inactive
OAF (out at first homolog)	2	-0.248	77	0.438	76.6	inactive
OAF (out at first homolog)	3	0.78	97.4	-0.101	112	inactive
LINC01599 (long independently transcribed non-coding RNA 1599)	1	0.617	94.2	0.069	103	inactive
LINC01599 (long independently transcribed non-coding RNA 1599)	2	2.13	124	0.823	112	inactive
LINC01599 (long independently transcribed non-coding RNA 1599)	3	0.319	88.2	-0.403	110	inactive
WBP4 (WW domain binding protein 4)	1	-0.506	71.8	-0.811	99.4	inactive
WBP4 (WW domain binding protein 4)	2	0.284	87.5	-0.268	105	inactive
WBP4 (WW domain binding protein 4)	3	-1.03	61.4	-0.642	81.2	inactive
ATP13A5 (ATPase 13A5)	1	-0.51	71.7	-0.308	86.9	inactive
ATP13A5 (ATPase 13A5)	2	0.132	84.5	0.251	88.4	inactive
ATP13A5 (ATPase 13A5)	3	0.502	91.9	-0.103	105	inactive
GTPBP2 (GTP binding protein 2)	1	-0.994	62.1	-1.24	96.1	inactive
GTPBP2 (GTP binding protein 2)	2	0.92	100	0.477	98.7	inactive
GTPBP2 (GTP binding protein 2)	3	-0.446	73	-0.686	97.7	inactive
WAPL (WAPL cohesin release factor)	1	0.107	84	0.0142	93.5	inactive
WAPL (WAPL cohesin release factor)	2	0.746	96.7	0.777	88.1	inactive
WAPL (WAPL cohesin release factor)	3	1.15	105	0.858	93.4	inactive
AANAT (aralkylamine N-acetyltransferase)	1	0.654	94.9	0.289	98.3	inactive
AANAT (aralkylamine N-acetyltransferase)	2	0.648	94.8	0.191	101	inactive
AANAT (aralkylamine N-acetyltransferase)	3	0.507	92	0.147	98.9	inactive

Only “total luciferase, % of control”, for 3 of the entries above:
WAPL (WAPL cohesin release factor) #3 = 105
AANAT (aralkylamine N-acetyltransferase) #1 = 94.9
AANAT (aralkylamine N-acetyltransferase) #2 = 94.8

Continued.
gene knocked down	reagent	total luciferase, z-score	total luciferase, % of control	luciferase per cell, z-score	viable cells, % of control	outcome
TMEM100 (transmembrane protein 100)	1	-0.64	69.2	0.331	70.8	inactive
TMEM100 (transmembrane protein 100)	2	-0.889	64.2	-1.47	106	inactive
TMEM100 (transmembrane protein 100)	3	-0.41	73.7	-0.774	101	inactive
GRK3 (G protein-coupled receptor kinase 3)	1	1.19	106	1.1	88.2	inactive
GRK3 (G protein-coupled receptor kinase 3)	2	1.21	106	0.0995	115	inactive
GRK3 (G protein-coupled receptor kinase 3)	3	2.36	129	1.58	95	inactive
RWDD2A (RWD domain containing 2A)	1	0.864	99.1	1.54	73.9	inactive
RWDD2A (RWD domain containing 2A)	2	-0.111	79.7	-0.744	108	inactive
RWDD2A (RWD domain containing 2A)	3	-0.322	75.5	-0.627	99.5	inactive
AP1AR	1	0.467	91.2	0.374	92.3	inactive
AP1AR	2	-1.07	60.7	-1.22	93.5	inactive
AP1AR	3	-0.364	74.7	-0.48	94.7	inactive
PPP1R7 (protein phosphatase 1 regulatory subunit 7)	1	0.217	86.2	-0.506	110	inactive
PPP1R7 (protein phosphatase 1 regulatory subunit 7)	2	-0.29	76.1	0.173	81.3	inactive
PPP1R7 (protein phosphatase 1 regulatory subunit 7)	3	-0.388	74.2	0.526	72.2	inactive
PCMTD1	1	-0.564	70.7	-0.908	100	inactive
PCMTD1	2	-0.32	75.5	-0.161	88	inactive
PCMTD1	3	-1.53	51.4	-1.64	88.5	inactive
TNFRSF8 (TNF receptor superfamily member 8)	1	0.205	86	-0.155	100	inactive
TNFRSF8 (TNF receptor superfamily member 8)	2	0.36	89	0.393	89.7	inactive
TNFRSF8 (TNF receptor superfamily member 8)	3	0.0711	83.3	-0.182	97.6	inactive
NDUFAF5 (NADH:ubiquinone oxidoreductase complex assembly factor 5)	1	0.365	89.1	-0.671	119	inactive
NDUFAF5 (NADH:ubiquinone oxidoreductase complex assembly factor 5)	2	1.23	106	0.595	102	inactive
NDUFAF5 (NADH:ubiquinone oxidoreductase complex assembly factor 5)	3	-0.0498	80.9	-0.835	113	inactive
ACADS (acyl-CoA dehydrogenase short chain)	1	-0.764	66.7	-1.01	97.1	inactive
ACADS (acyl-CoA dehydrogenase short chain)	2	-0.476	72.4	0.275	75.3	inactive
ACADS (acyl-CoA dehydrogenase short chain)	3	3.41	150	2.75	81.2	active
PAG1	1	-0.265	76.6	0.524	74.6	inactive
PAG1	2	1.87	119	1.31	94.2	inactive
PAG1	3	0.908	100	0.781	90.9	inactive
ZNF565 (zinc finger protein 565)	1	2.52	132	1.26	106	inactive
ZNF565 (zinc finger protein 565)	2	-0.892	64.1	-0.196	75.5	inactive
ZNF565 (zinc finger protein 565)	3	1.45	111	1.61	81.1	inactive
